In PMC3272004:
These are yes or no findings as the source states them, for the method shown. Binding seen in cells or lysates may run through a third protein. Some results given as binding are weak or reduced against the parent protein; the word gives no strength. Sequences can lack the tags named with a protein.

Columns and labels:
[1] = target: T1, GST-Brk fusion protein, Brk(441-589) (Drosophila) (UniProt Q9XTN4); test: pull-down; GST-Brk(441-589) or GST immobilised on glutathione beads; in vitro translated [35S]-Gro variants; PBS with 340 mM NaCl, 1 mM EDTA, 0.1% NP-40, 10% BSA; washes PBS with 290 mM NaCl; autoradiography; only the target purified
T1 sequence: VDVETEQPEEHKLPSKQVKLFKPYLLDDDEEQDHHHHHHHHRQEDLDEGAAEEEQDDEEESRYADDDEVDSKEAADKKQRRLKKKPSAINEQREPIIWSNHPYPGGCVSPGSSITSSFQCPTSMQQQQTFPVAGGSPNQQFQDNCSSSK

[2] = target: T2, His-tagged Gro N-terminal region, wild type (His-GroN^WT), Gro (2-194) (Drosophila) (UniProt P16371); test: pull-down; untagged Gro forms cotranslated in vitro with His-GroN in the presence of [35S]-methionine; His-GroN immobilised on Ni-NTA beads overnight at 4°C; 25 mM HEPES pH 7.6, 450 mM NaCl, 10 mM imidazole, 0.1% Tween 20, 1 mM DTT; SDS-PAGE and autoradiography
T2 sequence: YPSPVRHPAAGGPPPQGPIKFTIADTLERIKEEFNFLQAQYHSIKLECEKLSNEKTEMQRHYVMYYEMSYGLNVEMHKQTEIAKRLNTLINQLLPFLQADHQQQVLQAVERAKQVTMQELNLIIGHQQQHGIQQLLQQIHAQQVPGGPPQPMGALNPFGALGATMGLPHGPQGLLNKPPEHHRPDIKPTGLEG

- binding [1]: binds
- binding [2]: binds
Substance: Groucho, wild-type full-length (Gro^WT), untagged (from UniProt P16371 1-730)
